Test results as given in PMC9123298.
These are yes or no findings as the source states them, for the method shown. Binding seen in cells or lysates may run through a third protein. Binding calls can cover weak binding; strength is not graded here.

Amino acid sequences for entries named in this document (tags omitted). A change or cut given only in a name is not applied to a line headed by its entry.
UniProt A0A3B6A278: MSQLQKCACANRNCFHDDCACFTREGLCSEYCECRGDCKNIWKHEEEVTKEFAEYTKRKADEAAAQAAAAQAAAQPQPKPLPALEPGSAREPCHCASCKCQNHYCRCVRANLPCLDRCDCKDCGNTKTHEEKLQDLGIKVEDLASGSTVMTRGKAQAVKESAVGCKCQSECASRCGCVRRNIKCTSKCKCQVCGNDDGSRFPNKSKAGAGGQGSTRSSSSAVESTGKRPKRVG

Target: TaCPP11-3B fused to the C-terminal part of luciferase (LCI construct) (Triticum aestivum L. (wheat))
Experiment: split reporter; firefly luciferase complementation imaging (LCI) in co-infiltrated tobacco leaves; LUC activity read 60 h after co-infiltration

binding: binds
Substance: TaCPP5-1D fused to the N-terminal part of luciferase (LCI construct) (from UniProt A0A3B6A278)
